The values that follow come from article PMC9999015.

Amino acid sequences for entries named in this document (tags omitted).
UniProt Q13485: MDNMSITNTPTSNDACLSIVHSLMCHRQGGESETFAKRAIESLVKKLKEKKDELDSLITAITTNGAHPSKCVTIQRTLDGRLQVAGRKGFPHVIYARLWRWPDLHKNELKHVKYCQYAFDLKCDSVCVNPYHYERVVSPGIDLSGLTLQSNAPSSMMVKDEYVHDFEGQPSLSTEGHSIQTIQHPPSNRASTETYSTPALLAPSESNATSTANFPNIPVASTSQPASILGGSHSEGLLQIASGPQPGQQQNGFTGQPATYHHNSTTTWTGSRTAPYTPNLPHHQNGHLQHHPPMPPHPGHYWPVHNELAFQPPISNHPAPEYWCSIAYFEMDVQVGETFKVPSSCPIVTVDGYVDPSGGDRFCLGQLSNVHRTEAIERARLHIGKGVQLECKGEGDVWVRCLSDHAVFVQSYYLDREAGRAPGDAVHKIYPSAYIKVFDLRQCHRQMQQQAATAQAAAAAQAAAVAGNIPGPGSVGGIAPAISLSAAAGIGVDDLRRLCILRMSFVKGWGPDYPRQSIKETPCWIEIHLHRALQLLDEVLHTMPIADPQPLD

No constants are given. Whether binding was seen depends on the method and setting. In cells and extracts the contact can be indirect. Some entries that bind do so weakly or less than the wild type.

The experiment deals with Smad4 (human (endogenous in PANC-1)) (UniProt Q13485). Nature of the experiment: co-IP; endogenous proteins in PANC-1 lysate; pre-cleared lysate with anti-Smad4 antibody 1 h at 4°C, protein A magnetic beads, five washes, immunoblot for Prdm16; lysis buffer 25 mM Tris-HCl pH 7.2, 150 mM NaCl, 5 mM MgCl2, 5% glycerol, 1% NP40; cells with or without TGF-β1 for 48 h (interaction inhibited by TGF-β1); PANC-1 with SMAD4 gRNA as control. For orientation: Immunoblotting shows a protein as a band on a membrane.

Regarding “Prdm16 (PR domain containing 16) (from UniProt Q9HAZ2-1 1-1276)”, the binding entry was “binds”.
